# The supplement of paper PMC8728848
# The list shows a part of the results.
# Key:
# Test in all cases: glycan array binding signal (z-score within array); higher = stronger binding
# Settings in all cases: glycan notation: IUPAC condensed, linker removed; mutation: D21K
# [1] = molecular target: Gal(a1-3)Gal
# In short: (§1)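 The binding signal is a Z-score computed within each array. Data were drawn from 3228 arrays in the Consortium for Functional Glycomics database, restricted to those with a known protein sequence. Scores were averaged over arrays of the same protein sequence at different concentrations or buffers, and over linkers, and negative values can be taken as non-binding.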
# [2] = molecular target: Gal(a1-3)Gal(b1-3)GlcNAc
# In short: as §1
# [3] = molecular target: Gal(a1-3)Gal(b1-3)GlcNAc(b1-2)Man
# In short: as §1
# [4] = molecular target: Gal(a1-3)Gal(b1-3)GlcNAc(b1-2)Man(a1-3)[Gal(a1-3)Gal(b1-3)GlcNAc(b1-2)Man(a1-6)]Man(b1-4)GlcNAc(b1-4)GlcNAc
# In short: as §1
# [5] = molecular target: Gal(a1-3)Gal(b1-3)GlcNAc(b1-3)GalNAc
# In short: as §1
# [6] = molecular target: Gal(a1-3)Gal(b1-3)GlcNAc(b1-6)GalNAc
# In short: as §1
# [7] = molecular target: Gal(a1-3)Gal(b1-3)[Fuc(a1-4)]GlcNAc(b1-2)Man(a1-3)[Gal(a1-3)Gal(b1-3)[Fuc(a1-4)]GlcNAc(b1-2)Man(a1-6)]Man(b1-4)GlcNAc(b1-4)GlcNAc
# In short: as §1
# [8] = molecular target: Gal(a1-3)Gal(b1-4)Glc
# In short: as §1
# [9] = molecular target: Gal(a1-3)Gal(b1-4)GlcNAc
# In short: as §1
# [10] = molecular target: Gal(a1-3)Gal(b1-4)GlcNAc(b1-2)Man
# In short: as §1
# [11] = molecular target: Gal(a1-3)Gal(b1-4)GlcNAc(b1-2)Man(a1-3)[Gal(a1-3)Gal(b1-4)GlcNAc(b1-2)Man(a1-6)]Man(b1-4)GlcNAc(b1-4)GlcNAc
# In short: as §1
# [12] = molecular target: Gal(a1-3)Gal(b1-4)GlcNAc(b1-3)GalNAc
# In short: as §1
# [13] = molecular target: Gal(a1-3)Gal(b1-4)GlcNAc(b1-6)GalNAc
# In short: as §1
# [14] = molecular target: Gal(a1-3)Gal(b1-4)[Fuc(a1-3)]GlcNAc
# In short: as §1
# [15] = molecular target: Gal(a1-3)Gal(b1-4)[Fuc(a1-3)]GlcNAc(b1-2)Man(a1-3)[Gal(a1-3)Gal(b1-4)[Fuc(a1-3)]GlcNAc(b1-2)Man(a1-6)]Man(b1-4)GlcNAc(b1-4)GlcNAc
# In short: as §1
# [16] = molecular target: Gal(a1-3)GalNAc
# In short: as §1
# [17] = molecular target: Gal(a1-3)[Gal(a1-4)]Gal(b1-4)GlcNAc
# In short: as §1
# [18] = molecular target: Gal(a1-4)Gal(b1-3)GlcNAc(b1-2)Man(a1-3)[Gal(a1-4)Gal(b1-3)GlcNAc(b1-2)Man(a1-6)]Man(b1-4)GlcNAc(b1-4)GlcNAc
# In short: as §1
# [19] = molecular target: Gal(a1-4)Gal(b1-4)Glc
# In short: as §1
# [20] = molecular target: Gal(a1-4)Gal(b1-4)GlcNAc
# In short: as §1
# [21] = molecular target: Gal(a1-4)Gal(b1-4)GlcNAc(b1-2)Man(a1-3)[Gal(a1-4)Gal(b1-4)GlcNAc(b1-2)Man(a1-6)]Man(b1-4)GlcNAc(b1-4)GlcNAc
# In short: as §1
# [22] = molecular target: Gal(a1-4)Gal(b1-4)GlcNAc(b1-3)Gal(b1-4)Glc
# In short: as §1
# [23] = molecular target: Gal(a1-4)GlcNAc
# In short: as §1
# [24] = molecular target: Gal(a1-6)Glc
# In short: as §1
# [25] = molecular target: Gal(b1-2)Gal
# In short: as §1
# [26] = molecular target: Gal(b1-3)Gal
# In short: as §1
# [27] = molecular target: Gal(b1-3)Gal(b1-4)GlcNAc
# In short: as §1
# [28] = molecular target: Gal(b1-3)GalNAc
# In short: as §1
# [29] = molecular target: Gal(b1-3)GalNAc(a1-3)[Fuc(a1-2)]Gal(b1-4)Glc
# In short: as §1
# [30] = molecular target: Gal(b1-3)GalNAc(a1-3)[Fuc(a1-2)]Gal(b1-4)GlcNAc
# In short: as §1
# [31] = molecular target: Gal(b1-3)GalNAc(b1-3)Gal
# In short: as §1
# [32] = molecular target: Gal(b1-3)GalNAc(b1-3)Gal(a1-4)Gal(b1-4)Glc
# In short: as §1
# [33] = molecular target: Gal(b1-3)GalNAc(b1-4)Gal(b1-4)Glc
# In short: as §1
# [34] = molecular target: Gal(b1-3)GalNAc(b1-4)[Neu5Ac(a2-3)]Gal(b1-4)Glc
# In short: as §1
# [35] = molecular target: Gal(b1-3)GlcNAc
# In short: as §1
# [36] = molecular target: Gal(b1-3)GlcNAc(a1-3)Gal(b1-4)GlcNAc
# In short: as §1
# [37] = molecular target: Gal(b1-3)GlcNAc(a1-6)Gal(b1-4)GlcNAc
# In short: as §1
# [38] = molecular target: Gal(b1-3)GlcNAc(b1-2)Man
# In short: as §1
binder,measurement,setting,value
KILRGVCKKIMRTFLRRISKKILTGKK [C7A (Sus scrofa)],glycan array binding signal (z-score),[1],0.724
same,glycan array binding signal (z-score),[2],0.967
same,glycan array binding signal (z-score),[3],0.819
same,glycan array binding signal (z-score),[4],-0.239
same,glycan array binding signal (z-score),[5],-1.08
same,glycan array binding signal (z-score),[6],0.203
same,glycan array binding signal (z-score),[7],-0.499
same,glycan array binding signal (z-score),[8],0.445
same,glycan array binding signal (z-score),[9],-0.056
same,glycan array binding signal (z-score),[10],-0.255
same,glycan array binding signal (z-score),[11],1.02
same,glycan array binding signal (z-score),[12],1.03
same,glycan array binding signal (z-score),[13],0.289
same,glycan array binding signal (z-score),[14],-0.503
same,glycan array binding signal (z-score),[15],1.54
same,glycan array binding signal (z-score),[16],-1.27
same,glycan array binding signal (z-score),[17],0.818
same,glycan array binding signal (z-score),[18],0.908
same,glycan array binding signal (z-score),[19],-0.862
same,glycan array binding signal (z-score),[20],-0.591
same,glycan array binding signal (z-score),[21],0.22
same,glycan array binding signal (z-score),[22],0.658
same,glycan array binding signal (z-score),[23],-1.02
same,glycan array binding signal (z-score),[24],-1.76
same,glycan array binding signal (z-score),[25],-1.46
same,glycan array binding signal (z-score),[26],0.526
same,glycan array binding signal (z-score),[27],0.38
same,glycan array binding signal (z-score),[28],-0.394
same,glycan array binding signal (z-score),[29],-0.962
same,glycan array binding signal (z-score),[30],1.21
same,glycan array binding signal (z-score),[31],-1.18
same,glycan array binding signal (z-score),[32],2.25
same,glycan array binding signal (z-score),[33],1.03
same,glycan array binding signal (z-score),[34],0.649
same,glycan array binding signal (z-score),[35],-1.43
same,glycan array binding signal (z-score),[36],0.316
same,glycan array binding signal (z-score),[37],0.584
same,glycan array binding signal (z-score),[38],0.724

# Laid out differently: entries from further up
binder | measurement | setting | value
KILRGVCKKIMRTFLRRISKKILTGKK [C7A (Sus scrofa)] | glycan array binding signal (z-score) | [33] | 1.03
same | glycan array binding signal (z-score) | [34] | 0.649
